The values below come from paper PMC12017883.

Amino acid sequences for entries named in this document (tags omitted). A change or cut given only in a name is not applied to a line headed by its entry. Residues count along the entry.
UniProt P00441: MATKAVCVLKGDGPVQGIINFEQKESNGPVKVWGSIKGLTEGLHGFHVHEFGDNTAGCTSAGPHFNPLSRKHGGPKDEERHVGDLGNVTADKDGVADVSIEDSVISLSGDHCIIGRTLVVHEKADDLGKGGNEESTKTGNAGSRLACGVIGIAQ
UniProt Q64514: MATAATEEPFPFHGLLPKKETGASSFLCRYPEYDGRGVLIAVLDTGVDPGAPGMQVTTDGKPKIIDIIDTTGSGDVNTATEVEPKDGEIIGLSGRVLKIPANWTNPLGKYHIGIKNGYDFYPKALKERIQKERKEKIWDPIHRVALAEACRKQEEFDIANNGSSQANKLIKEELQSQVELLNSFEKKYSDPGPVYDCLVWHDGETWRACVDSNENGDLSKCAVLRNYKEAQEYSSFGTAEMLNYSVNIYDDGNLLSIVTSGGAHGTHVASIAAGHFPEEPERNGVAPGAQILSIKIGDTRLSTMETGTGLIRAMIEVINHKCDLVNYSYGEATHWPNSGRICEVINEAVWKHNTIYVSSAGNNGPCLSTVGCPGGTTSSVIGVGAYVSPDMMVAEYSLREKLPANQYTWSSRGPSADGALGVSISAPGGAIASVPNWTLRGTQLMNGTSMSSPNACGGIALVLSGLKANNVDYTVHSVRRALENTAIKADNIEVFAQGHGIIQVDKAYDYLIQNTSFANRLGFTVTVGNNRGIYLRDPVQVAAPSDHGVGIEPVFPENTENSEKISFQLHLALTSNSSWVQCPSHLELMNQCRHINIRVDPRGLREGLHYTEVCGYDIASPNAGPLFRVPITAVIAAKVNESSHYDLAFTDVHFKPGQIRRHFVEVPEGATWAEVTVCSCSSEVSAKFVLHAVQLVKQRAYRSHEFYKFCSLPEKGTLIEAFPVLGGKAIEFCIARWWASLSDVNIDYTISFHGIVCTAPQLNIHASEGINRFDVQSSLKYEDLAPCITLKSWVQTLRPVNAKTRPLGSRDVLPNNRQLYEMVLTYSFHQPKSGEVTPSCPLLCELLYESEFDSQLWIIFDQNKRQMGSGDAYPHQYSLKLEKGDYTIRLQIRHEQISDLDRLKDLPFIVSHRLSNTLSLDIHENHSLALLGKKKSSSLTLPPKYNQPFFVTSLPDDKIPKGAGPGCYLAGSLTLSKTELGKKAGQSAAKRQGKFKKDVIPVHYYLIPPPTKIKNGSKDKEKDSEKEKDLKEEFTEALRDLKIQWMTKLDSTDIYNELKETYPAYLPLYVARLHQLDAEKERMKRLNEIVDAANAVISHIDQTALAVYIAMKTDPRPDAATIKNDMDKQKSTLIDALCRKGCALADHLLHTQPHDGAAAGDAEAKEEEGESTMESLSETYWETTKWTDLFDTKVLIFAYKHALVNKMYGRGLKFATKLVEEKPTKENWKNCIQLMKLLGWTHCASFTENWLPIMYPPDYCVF
UniProt Q8BG05: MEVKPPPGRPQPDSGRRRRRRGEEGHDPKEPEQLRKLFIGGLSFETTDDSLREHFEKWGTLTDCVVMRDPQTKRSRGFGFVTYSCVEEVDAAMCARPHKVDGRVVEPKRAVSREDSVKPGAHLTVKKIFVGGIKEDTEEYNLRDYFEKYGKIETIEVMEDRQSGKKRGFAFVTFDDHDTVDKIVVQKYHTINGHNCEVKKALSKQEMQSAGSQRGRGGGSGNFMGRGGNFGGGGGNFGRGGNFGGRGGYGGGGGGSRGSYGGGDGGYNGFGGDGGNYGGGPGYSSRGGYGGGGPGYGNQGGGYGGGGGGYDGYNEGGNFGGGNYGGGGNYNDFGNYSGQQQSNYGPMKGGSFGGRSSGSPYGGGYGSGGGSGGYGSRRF
UniProt P23116: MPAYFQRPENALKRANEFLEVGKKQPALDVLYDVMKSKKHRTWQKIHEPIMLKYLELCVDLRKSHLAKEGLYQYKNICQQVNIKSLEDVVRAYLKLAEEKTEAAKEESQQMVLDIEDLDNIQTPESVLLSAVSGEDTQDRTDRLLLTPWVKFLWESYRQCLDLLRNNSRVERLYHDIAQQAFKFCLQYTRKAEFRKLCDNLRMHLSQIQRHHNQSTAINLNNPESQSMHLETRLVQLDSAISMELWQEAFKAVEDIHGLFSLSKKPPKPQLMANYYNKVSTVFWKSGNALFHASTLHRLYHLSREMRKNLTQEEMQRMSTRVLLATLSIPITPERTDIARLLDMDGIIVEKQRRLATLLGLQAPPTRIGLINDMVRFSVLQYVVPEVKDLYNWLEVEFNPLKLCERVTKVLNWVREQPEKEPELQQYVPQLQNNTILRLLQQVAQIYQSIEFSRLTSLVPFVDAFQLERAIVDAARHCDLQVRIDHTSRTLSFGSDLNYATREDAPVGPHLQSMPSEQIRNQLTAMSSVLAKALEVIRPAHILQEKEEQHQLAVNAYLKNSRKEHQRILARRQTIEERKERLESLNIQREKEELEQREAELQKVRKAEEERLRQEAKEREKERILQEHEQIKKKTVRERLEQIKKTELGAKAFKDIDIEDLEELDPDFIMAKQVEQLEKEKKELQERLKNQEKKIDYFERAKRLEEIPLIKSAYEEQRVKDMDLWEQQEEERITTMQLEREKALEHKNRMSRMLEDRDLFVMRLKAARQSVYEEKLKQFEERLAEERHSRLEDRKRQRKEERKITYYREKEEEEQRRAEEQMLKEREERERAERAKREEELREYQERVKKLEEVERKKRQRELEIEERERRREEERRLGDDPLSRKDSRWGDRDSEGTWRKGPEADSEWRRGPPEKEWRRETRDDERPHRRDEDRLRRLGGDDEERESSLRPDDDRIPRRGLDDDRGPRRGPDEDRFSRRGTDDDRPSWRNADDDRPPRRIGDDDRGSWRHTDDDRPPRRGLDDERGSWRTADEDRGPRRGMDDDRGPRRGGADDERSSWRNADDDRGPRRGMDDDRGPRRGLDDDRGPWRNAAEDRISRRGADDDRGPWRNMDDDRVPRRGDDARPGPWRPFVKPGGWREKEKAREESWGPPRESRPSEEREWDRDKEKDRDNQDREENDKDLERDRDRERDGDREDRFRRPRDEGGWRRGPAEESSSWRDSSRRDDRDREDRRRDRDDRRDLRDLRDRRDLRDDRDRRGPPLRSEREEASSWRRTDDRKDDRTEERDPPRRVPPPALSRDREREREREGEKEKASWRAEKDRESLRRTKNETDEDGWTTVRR
UniProt O88532: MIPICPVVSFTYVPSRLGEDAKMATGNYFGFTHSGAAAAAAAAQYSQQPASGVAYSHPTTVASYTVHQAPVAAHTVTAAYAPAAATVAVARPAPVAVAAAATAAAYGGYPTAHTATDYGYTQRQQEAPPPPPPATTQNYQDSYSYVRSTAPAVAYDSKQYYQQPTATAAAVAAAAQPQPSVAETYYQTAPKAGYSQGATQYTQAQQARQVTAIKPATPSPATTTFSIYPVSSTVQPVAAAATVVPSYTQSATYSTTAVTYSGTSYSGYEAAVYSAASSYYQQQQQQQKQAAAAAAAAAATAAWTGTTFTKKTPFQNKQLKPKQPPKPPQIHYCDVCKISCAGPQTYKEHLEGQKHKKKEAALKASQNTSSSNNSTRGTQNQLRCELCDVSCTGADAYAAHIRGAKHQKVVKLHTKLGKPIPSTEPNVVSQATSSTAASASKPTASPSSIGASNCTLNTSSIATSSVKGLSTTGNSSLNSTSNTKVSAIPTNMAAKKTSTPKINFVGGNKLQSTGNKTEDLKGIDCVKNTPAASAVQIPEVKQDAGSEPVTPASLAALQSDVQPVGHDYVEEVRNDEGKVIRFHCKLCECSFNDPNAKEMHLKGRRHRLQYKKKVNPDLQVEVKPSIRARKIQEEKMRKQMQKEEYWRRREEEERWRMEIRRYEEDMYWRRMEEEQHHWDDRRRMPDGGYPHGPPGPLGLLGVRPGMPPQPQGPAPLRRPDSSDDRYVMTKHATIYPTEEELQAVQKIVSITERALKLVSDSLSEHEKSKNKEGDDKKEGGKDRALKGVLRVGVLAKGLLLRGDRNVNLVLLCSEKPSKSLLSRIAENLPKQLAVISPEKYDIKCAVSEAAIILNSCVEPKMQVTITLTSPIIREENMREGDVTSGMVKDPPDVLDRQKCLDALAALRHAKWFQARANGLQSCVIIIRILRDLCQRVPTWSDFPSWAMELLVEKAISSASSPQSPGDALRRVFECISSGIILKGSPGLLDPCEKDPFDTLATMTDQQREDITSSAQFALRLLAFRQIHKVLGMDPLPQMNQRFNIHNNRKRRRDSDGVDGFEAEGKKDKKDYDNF
UniProt Q9CXZ1, residues 43-175: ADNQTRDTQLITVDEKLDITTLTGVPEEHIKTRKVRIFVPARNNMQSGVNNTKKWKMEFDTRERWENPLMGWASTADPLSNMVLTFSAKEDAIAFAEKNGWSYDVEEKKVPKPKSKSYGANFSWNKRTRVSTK
UniProt P97789: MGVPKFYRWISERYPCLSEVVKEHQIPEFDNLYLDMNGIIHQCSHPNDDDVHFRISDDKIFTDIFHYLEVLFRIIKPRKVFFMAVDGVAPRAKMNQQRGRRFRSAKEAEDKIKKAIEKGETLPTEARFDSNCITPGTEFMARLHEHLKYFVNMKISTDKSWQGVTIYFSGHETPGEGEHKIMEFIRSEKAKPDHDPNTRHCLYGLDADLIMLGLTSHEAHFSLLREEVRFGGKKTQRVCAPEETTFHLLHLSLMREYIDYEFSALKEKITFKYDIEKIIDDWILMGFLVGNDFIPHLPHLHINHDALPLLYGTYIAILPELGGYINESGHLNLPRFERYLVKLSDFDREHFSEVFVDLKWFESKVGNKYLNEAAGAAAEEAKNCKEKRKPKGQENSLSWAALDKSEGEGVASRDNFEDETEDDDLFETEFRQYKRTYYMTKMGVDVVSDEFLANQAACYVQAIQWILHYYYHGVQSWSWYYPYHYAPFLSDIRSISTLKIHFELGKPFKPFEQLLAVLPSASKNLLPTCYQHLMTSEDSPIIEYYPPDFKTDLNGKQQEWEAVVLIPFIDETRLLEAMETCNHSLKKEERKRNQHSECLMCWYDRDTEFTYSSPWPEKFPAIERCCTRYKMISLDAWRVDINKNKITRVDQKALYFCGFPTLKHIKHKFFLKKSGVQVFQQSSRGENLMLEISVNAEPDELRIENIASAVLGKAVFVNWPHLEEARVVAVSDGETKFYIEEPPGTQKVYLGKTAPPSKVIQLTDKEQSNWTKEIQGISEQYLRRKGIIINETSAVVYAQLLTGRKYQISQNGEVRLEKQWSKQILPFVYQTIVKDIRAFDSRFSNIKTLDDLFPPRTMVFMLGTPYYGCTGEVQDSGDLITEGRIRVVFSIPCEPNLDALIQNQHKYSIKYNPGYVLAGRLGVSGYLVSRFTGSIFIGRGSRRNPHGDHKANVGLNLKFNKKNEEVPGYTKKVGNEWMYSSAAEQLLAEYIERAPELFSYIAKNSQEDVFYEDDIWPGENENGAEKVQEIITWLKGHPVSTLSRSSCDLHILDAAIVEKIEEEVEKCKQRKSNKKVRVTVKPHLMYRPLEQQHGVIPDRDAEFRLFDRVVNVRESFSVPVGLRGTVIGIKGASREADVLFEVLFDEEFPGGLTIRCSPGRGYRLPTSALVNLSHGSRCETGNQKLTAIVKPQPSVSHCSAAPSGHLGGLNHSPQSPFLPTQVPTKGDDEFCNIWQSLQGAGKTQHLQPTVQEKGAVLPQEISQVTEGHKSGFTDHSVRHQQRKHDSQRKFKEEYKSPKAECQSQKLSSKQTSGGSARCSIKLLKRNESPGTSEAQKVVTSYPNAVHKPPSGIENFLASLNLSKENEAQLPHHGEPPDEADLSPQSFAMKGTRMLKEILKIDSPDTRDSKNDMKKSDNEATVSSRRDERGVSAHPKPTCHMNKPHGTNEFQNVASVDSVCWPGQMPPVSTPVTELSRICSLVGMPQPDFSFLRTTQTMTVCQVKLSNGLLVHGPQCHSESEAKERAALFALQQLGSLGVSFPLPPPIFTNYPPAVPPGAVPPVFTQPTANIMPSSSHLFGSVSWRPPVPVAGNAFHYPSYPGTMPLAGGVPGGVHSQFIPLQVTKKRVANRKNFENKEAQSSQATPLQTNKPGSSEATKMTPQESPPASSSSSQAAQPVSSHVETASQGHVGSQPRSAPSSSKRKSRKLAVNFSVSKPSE
UniProt Q99KP6: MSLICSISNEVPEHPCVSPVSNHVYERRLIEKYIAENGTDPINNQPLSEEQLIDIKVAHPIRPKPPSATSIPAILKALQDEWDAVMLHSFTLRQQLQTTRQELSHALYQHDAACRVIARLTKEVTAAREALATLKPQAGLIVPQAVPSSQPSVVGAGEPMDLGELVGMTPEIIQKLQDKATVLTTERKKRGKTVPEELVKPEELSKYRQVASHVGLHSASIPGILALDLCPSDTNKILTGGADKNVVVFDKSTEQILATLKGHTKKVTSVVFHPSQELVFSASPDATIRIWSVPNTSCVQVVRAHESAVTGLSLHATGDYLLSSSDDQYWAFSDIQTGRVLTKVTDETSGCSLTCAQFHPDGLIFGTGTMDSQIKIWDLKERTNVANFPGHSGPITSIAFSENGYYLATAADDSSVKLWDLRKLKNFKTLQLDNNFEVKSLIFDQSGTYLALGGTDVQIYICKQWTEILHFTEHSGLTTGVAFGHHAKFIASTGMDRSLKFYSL

No constants are given. Whether binding was seen depends on the method and setting. Binding seen in cells or lysates may run through a third protein. These calls come from enrichment with a bait or labelling near it, and not all partners need be listed.

The target in the assay is human mtSOD1-L126delTT with a FLAG sequence at the C terminus (human) (UniProt P00441). The assay is described as follows: affinity purification with mass spectrometry; anti-FLAG M2 IP (5 ug antibody, protein A/G magnetic beads) from the nuclear fraction of DF7 cells (500 ug total protein); control IP with monoclonal mouse IgG (MOPC 21); DIA proteomics; hits: log2 FC >= 2 over control or missing in the control IP.

Turning to “Serine/threonine-protein kinase MARK2 (from UniProt Q05512 1-776)”, the binding result is recorded as “binds”.
In the case of “Tripeptidyl-peptidase 2 (from UniProt Q64514 1-1262)”, the binding result is given as “binds”.
For Hnrnpa3 (from UniProt Q8BG05 1-379), the binding entry was “binds”.
“Protein PRRC2A (from UniProt Q7TSC1 1-2158)”: the binding entry was “binds”.
Under Eif3a (from UniProt P23116 1-1344) stands “binds”; under “DnaJ homolog subfamily A member 1 (from UniProt P63037 1-397)”, “binds”; under “Dynactin subunit 2 (from UniProt Q99KJ8 1-402)”, “binds”.
As for “DNA topoisomerase 2-beta (from UniProt Q64511 1-1612)”, the entry is “binds”; as for “Zinc finger RNA-binding protein (from UniProt O88532 1-1074)”, “binds”; as for Eif4g3 (from UniProt Q80XI3 1-1579), “binds”.
Under Map1b (from UniProt P14873 1-2464) stands “binds”.
Take “Vesicle-associated membrane protein-associated protein B (from UniProt Q9QY76 1-243)”: the binding entry is on record as “binds”.
As for Hnrnpu (from UniProt Q8VEK3 1-800), the entry is “binds”.
As for “NADH dehydrogenase [ubiquinone] iron-sulfur protein 4, mitochondrial (from UniProt Q9CXZ1 43-175)”, the entry is “binds”; as for “Structural maintenance of chromosomes protein 4 (from UniProt Q8CG47 1-1286)”, “binds”.
As for “Centrosomal protein of 170 kDa protein B (from UniProt Q80U49 1-1574)”, the entry is “binds”; as for Map4 (from UniProt P27546 1-1125), “binds”; as for “E3 ubiquitin-protein ligase RING2 (from UniProt Q9CQJ4 1-336)”, “binds”.
On to Xrn1 (from UniProt P97789 1-1719), for which the binding entry is given as “binds”.
As for “Death-inducer obliterator 1 (from UniProt Q8C9B9 1-2256)”, the entry is “binds”.
On to “DNA topoisomerase 2-alpha (from UniProt Q01320 1-1528)”, for which the binding result was “binds”.
As for “Serine/threonine-protein kinase WNK1 (from UniProt P83741 1-2377)”, the entry is “binds”; as for “Protein PRRC2C (from UniProt Q3TLH4 1-2846)”, “binds”; as for Ago2 (from UniProt Q8CJG0 1-860), “binds”.
Under Rrbp1 (from UniProt Q99PL5 1-1605) stands “binds”.
On to Prpf19 (from UniProt Q99KP6 1-504), for which the binding entry is “binds”.
As for Zc3h11a (from UniProt Q6NZF1 1-792), the entry is “binds”; as for “Beta-hexosaminidase subunit beta (from UniProt P20060 32-536)”, “binds”.

B1: Serine palmitoyltransferase 2 (protein, UniProt P97363 1-560)
chain: MRPEPGGCCCRRPMRANGCVKNGEVRNGYLRSSTATVAAAGQIHHVTENGGLYKRPFNEAFEETPMLVAVLTYVGYGVLTLFGYLRDFLRHWRIEKCHHATEREEQKDFVSLYQDFENFYTRNLYMRIRDNWNRPICSVPGAKVDIMERKSHDYNWSFKYTGNIIKGVINMGSYNYLGFARNTGSCQEAAAEVLKEYGAGVCSTRQEIGNLDKHEELEKLVARFLGVEAAMTYGMGFATNSMNIPALVGKGCLILSDELNHASLVLGARLSGATIRIFKHNNMQSLEKLLKDAIVYGQPRTRRPWKKILILVEGIYSMEGSIVRLPEVIALKKKYKAYLYLDEAHSIGALGPSGRGVVDYFGLDPEDVDVMMGTFTKSFGASGGYIGGKKELIDYLRTHSHSAVYATSMSPPVMEQIITSMKCIMGQDGTSLGKECIQQLAENTRYFRRRLKEMGFIIYGNEDSPVVPLMLYMPAKIGAFGREMLKRNIGVVVVGFPATPIIESRARFCLSAAHTKEILDTALKEIDEVGDLLQLKYSRHRLVPLLDRPFDETTYEETED
Regarding B1, the binding result is “binds”.

B2: Sister chromatid cohesion protein PDS5 homolog B (protein, UniProt Q4VA53 1-1446)
chain: MAHSKTRTNDGKITYPPGVKEISDKISKEEMVRRLKMVVKTFMDMDQDSEEEKELYLNLALHLASDFFLKHPDKDVRLLVACCLADIFRIYAPEAPYTSPDKLKDIFMFITRQLKGLEDTKSPQFNRYFYLLENIAWVKSYNICFELEDSNEIFTQLYRTLFSVINNGHNQKVHMHMVDLMSSIICEGDTVSQELLDTVLVNLVPAHKNLNKQAYDLAKALLKRTAQAIEPYITNFFNQVLMLGKTSISDLSEHVFDLILELYNIDSHLLLSVLPQLEFKLKSNDNEERLQVVKLLAKMFGAKDSELASQNKPLWQCYLGRFNDIHVPIRLECVKFASHCLMNHPDLAKDLTEYLKVRSHDPEEAIRHDVIVSIVTAAKKDILLVNDHLLNFVRERTLDKRWRVRKEAMMGLAQIYKKYSLQSAAGKDAAKQISWVKDKLLHIYYQNSIDDRLLVERIFAQYMVPHNLETTERMKCLYYLYATLDLNAVKALNEMWKCQNLLRHQVKDLLDLIKQPKTDASVKAIFSKVMVITRNLPDPGKAQDFMKKFTQVLEDDEKIRKQLEALVSPTCSCKQAEGCVREITKKLGNPKQPTNPFLEMIKFLLERIAPVHIDTESISALIKQVNKSIDGTADDEDEGVPTDQAIRAGLELLKVLSFTHPISFHSAETFESLLACLKMDDEKVAEAALQIFKNTGSKIEEDFPHIRSALLPVLHHKSKKGPPRQAKYAIHCIHAIFSSKETQFAQIFEPLHKSLDPSNLEHLITPLVTIGHIALLAPDQFAAPLKSLVATFIVKDLLMNDRLPGKKTTKLWVPDEEVSPETMVKIQAIKMMVRWLLGMKNNHSKSGTSTLRLLTTILHSDGDLTEQGKISKPDMSRLRLAAGSAIVKLAQEPCYHEIITLEQYQLCALAINDECYQVRQVFAQKLHKGLSRLRLPLEYMAICALCAKDPVKERRAHARQCLVKNITVRREYLKQHAAVSEKLLSLLPEYVVPYTIHLLAHDPDYVKVQDIEQLKDVKECLWFVLEILMAKNENNSHAFIRKMVENIKQTKDAQGPDDTKMNEKLYTVCDVAMNIIMSKSTTYSLESPKDPVLPARFFTQPDKNFSNTKNYLPPEMKSFFTPGKPKTANVLGAVNKPLSSAGKQSQTKSSRMETVSNASSSSNPSSPGRIKGRLDSSEMDHSENEDYTMSSPLPGKKSDKREDPDLSELEKPRSRKKAPVTDPEEKLGMDDLTKLVQEQKPKGSQRGRKRGRTASDSDEQQWPEEKRHKEELLENEDEQNSPPKKGKRGRPPKPLGGGTSKEEPTMKTSKKGNKKKLVPPVVDDDEEEERQIGNTEHKSKSKQHRTSKRAQQRAESPETSAVESTQSTPQKGRGRPSKAPSPSQPPKKIRVGRSKQVATKENDSSEEMDVLQASSPVSDDTTQEGAEEEDISVGNVRRRSSKRERR
For the molecule B2, the binding entry was “binds”.

B3: Mitochondrial fission 1 protein (protein, UniProt Q9CQ92 1-152)
chain: MEAVLNELVSVEDLKNFERKFQSEQAAGSVSKSTQFEYAWCLVRSKYNEDIRRGIVLLEELLPKGSKEEQRDYVFYLAVGNYRLKEYEKALKYVRGLLQTEPQNNQAKELERLIDKAMKKDGLVGMAIVGGMALGVAGLAGLIGLAVSKSKS
Regarding B3, the binding entry is given as “binds”.

B4: Ribosomal RNA processing protein 1 homolog B (protein, UniProt Q91YK2 1-724)
chain: MALAMQSSEFQFAQRLASSEKGVRDRAVRKLRQYLSARTQSDTGSFSQEELLKIWKGLFYCMWVQDEPLLQEELANIISQLIHVVNSLEAQYLFIQTFWQTMNREWQGIDKLQLDKYYMLIRLVLRQSFEVLKRNAWEESQITLFLDILMKEILSPESQSPNGVRTHLIDVYLEELTTVGGAELLADQNLKLIDPFCRIAAKTKDHTLVQTVARGVFEVIVDQSACVPQESVEERKTKEDGSGFPTKALACRKAVSGKKAALDECLRDGVIGSRERDICAALKDSGSPLQFDYKAVADRLLEIANSKSTPPFNRKRLCRLVRKFQDLCEGNGAPLSSAEDNGQRRHKRKRKKLLESEKGDTVSPAAEEDSGGHIHKKKRKKRKRSHFQPDTQNLDAVAVPKVPDSESEPDTAQRQAPCGQACVTEPTAEAVSSIGENSSKPTPVMPIHNKRKRPRKKKLRAHKEICKSTTLPQEDMSKNDAVSGHSQSSAAHISSSEGVQAQKRKRKLGALPDSSSDLPVQKSGTPTSPVEGKDGQTTLPRCKRSQKKTASSTLDPCDPSSQKPAISKKKKKTMKLMSNGVLESNPGQIQALGSNRTLKKPLKTEDDFVKFDTRFLPKPLFFRKAKNSSATRPQGPAGQLNKTPSSSKKVTFGLNRNMTAEFKKTDKSILVSPTGLSRVAFNPEQRPLHGVLKTATSSPASTPLSPMRLPATTPKRRPRAADFF
On to B4, for which the binding entry is given as “binds”.

B5: NF-kappa-B-repressing factor (protein, UniProt Q8BY02 1-690)
chain: MEKILHMAEGIDIGEMPSYDLMLPKPSKGQKRYLSTYDGQNPPKKQAGSKFHVRARFEPVHFVASSSKAERQEDPYGPQTKDVNGRTHFASMPRNFYQDYTQDSFSIQDGNSQYCNSSGFIFTKDQPVATNMYFDSGNPAPSSTSQQANCQPAPEPPPSQMYPESLVAEKQYFIEKLTATIWKNLSNPEMTSGSDKINYTYMLTRCIQACKTNPEYIYAPLKEIPPADIPKNKKLLTDGYACEVRCQNIYLTTGYAGSKNGSRDRATELAVKLLQKRIEVRVVRRKFKHIIGEDLVVCQIGMLSYEFPPALKPPEDLVVLGKDASGQPIFNSSAKHWTNFVITENANDAIGILNNSASFNKMSIEYKYEMMPNRTWRCRVFLQDHCLAEGYGTKKTSKHAAADEALKVLQKTQPTYPSVKSSQCHSGSSPKGSGKKKDIKDLVVYENSSNPVCTLNDTAQFNRMTVEYVYERMTGLRWKCKVILESEVIAEAVGVKKSVKYEAAGEAVKTLKKTQPTVINNLKKGTVEDVISRNEIQGRSAEEAYKQQIKEDNIGNQLLRKMGWTGGGLGKSGEGIREPISVKEQHKREGLGLDVERVNKIAKRDIEQIIRNYARSESHSDLTFSTELTNDERKQIHQIAQKYGLKSKSHGVGHDRYLVVGRKRRKEDLLDQLKQEGQVGHYELVMPQAN
Consider B5, for which the binding result was “binds”.
